These are yes or no findings as the source states them, for the method shown. Sequences can lack the tags named with a protein.

Protein sequences, listed by entry. Tags and fused reporters are not part of them. Lines headed by an entry give the natural chain unless they say otherwise; changes in a name come on top.
UniProt Q9UTJ8: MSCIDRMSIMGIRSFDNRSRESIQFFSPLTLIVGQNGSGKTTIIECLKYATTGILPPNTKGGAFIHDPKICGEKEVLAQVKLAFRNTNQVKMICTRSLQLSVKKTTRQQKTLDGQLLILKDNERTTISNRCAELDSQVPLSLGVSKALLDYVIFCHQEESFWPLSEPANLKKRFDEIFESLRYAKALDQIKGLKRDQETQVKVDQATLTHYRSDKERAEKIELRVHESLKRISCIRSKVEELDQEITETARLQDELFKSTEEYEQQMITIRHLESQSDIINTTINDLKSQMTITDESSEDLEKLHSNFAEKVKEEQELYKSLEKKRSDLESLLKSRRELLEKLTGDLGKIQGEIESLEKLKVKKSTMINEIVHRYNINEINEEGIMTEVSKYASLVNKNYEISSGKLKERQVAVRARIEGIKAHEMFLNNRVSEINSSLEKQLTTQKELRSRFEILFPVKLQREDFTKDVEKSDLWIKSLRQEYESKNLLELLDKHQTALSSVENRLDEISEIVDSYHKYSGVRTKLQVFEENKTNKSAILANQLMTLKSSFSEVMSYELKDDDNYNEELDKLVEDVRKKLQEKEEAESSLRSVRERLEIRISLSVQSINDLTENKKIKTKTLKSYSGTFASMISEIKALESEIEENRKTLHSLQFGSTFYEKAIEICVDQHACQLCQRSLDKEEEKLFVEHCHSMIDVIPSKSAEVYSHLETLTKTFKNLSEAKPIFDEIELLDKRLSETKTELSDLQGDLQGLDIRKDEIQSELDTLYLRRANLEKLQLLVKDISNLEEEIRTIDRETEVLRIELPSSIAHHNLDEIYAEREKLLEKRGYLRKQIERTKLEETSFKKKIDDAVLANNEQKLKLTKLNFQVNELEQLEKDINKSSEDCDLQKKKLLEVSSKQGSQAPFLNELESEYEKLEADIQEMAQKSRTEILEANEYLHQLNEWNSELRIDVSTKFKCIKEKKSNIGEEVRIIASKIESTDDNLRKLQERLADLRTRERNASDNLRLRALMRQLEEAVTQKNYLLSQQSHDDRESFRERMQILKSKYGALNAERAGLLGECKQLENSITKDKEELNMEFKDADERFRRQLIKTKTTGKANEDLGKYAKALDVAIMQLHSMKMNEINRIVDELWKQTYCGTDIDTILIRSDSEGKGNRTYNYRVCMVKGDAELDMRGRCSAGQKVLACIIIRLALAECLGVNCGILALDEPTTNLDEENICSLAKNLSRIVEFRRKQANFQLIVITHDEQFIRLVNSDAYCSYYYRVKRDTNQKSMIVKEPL

This assay has as its target Rad50 K81I (S. pombe), two-hybrid fusion (S. pombe) (UniProt Q9UTJ8). Briefly: two-hybrid; GBD and GAD plasmids (pGBKT7, pGADT7) co-transformed in strain PJ69-4A; HIS3 and ADE2 reporters, 3 mM 3-aminotriazole in some plates; 30 °C, 3-4 days.

B1: Taz1 (S. pombe), two-hybrid fusion (protein, UniProt P79005 1-663)
chain: MISVQSTETIQKVLENEGDQQFDKEVVQNSDSNIETGQISDSLTKAVEERAETESSSNLSNFTTSESESSKPAYCFNSHSQNMAEGSISIPVISHSMNVENEVSTAEGQDSRTGESENDQNAMIVRSIWDIEKASLLVNDCQNIANMAEQKVMMVSAIFSESSKDIVNPESFSERLGKETVKDLYEFNEQLTTKYGLEFRTIFFSYIRKYDAYWCLFEDLEKPLKSIQFFTGLIDLLDNTNKHLTLRSIVLDALLSADEEDSFYGDALVLFEELVIRYFGTDSNPSIDASEFILSCLPYTSLDALNVVCGQVWKSQKICDFLKSTIGNTSNSPLQLRASFPAFVNAVIHFLLEFKNVRRLERKDLSVKGMLYDSDSQQILNRLRERVSGSTAQSADEASGHESDASEDTFSERTLGLNSIDNTEISEVVSLGLVSSALDKITGLLSADNLSETVSQARDFSHTLSKSLKSRAKSLSQKEAANRSKLIAKRGDNLRREASLSSEQDDLSEDFPPVRESDEQESRSGGRSSAMRVSIERSAARSGTRRSQGNPYEGYRTRRKWTDEEENELYEMISQHGCCWSKIIHIQKLENGPLKTFGPTQIKDKARLIKARFMKQNRLQELYSKSLNWKNVTVGQAYCELHKIPYIEATPPLLREELVNYQS
With B1, the binding result is “no binding”.
